Results published in publication PMC11941939 (International Journal of Molecular Sciences, 2025).

Tests used:
[1] = general procedure: Fmoc solid-phase peptide synthesis; Rink Amide MBHA resin (100-200 mesh, loading 0.78 mmol/g); HBTU/Oxyma/DIPEA; conditions: TFA salt; for final HPLC purity: analytical HPLC (Phenomenex Luna C18(2), photodiode array detector)
[2] = general procedure: Fmoc solid-phase peptide synthesis; Rink Amide MBHA; HBTU/Oxyma/DIPEA; conditions: whole synthesis, TFA salt
[3] = general procedure: Fmoc solid-phase peptide synthesis; Fmoc-Cys(Trt)-preloaded Wang resin; HBTU/Oxyma/DIPEA; conditions: whole synthesis, TFA salt
[4] = whole synthesis, scale of the general procedure 50 mg resin

## Ava-Lys(N3)-Glu-(Ava-BBN2)2
[1]; whole synthesis
  crude mass: 14 mg
  isolated mass: 5.4 mg
[1]; [4]
  isolated yield: 56%

## H2N-Ava-Gln-Trp-Ala-Val-Sar-FA01010-Tle-NH2
[1]; whole synthesis
  crude mass: 28.7 mg
  isolated mass: 13.1 mg
[1]; [4]
  isolated yield: 19.2%

## H2N-Ava-Lys(N3)-Gln-Trp-Ala-Val-Sar-His-FA01010-Tle-NH2
[1]; [4]
  final HPLC purity: 90%
  isolated yield: 45.3%
[2]
  isolated mass: 21.5 mg

## H-SKPLPEVTDEYC-OH
[1]; [4]
  isolated yield: 61.3%
[3]
  isolated mass: 38 mg

## NOTA-Ava-Glu-(Ava-BBN2)2
[1]; conjugation step
  conjugation yield: 81%
  final HPLC purity: 99%

## NOTA-Ava-Lys(N3)-BBN2
[1]; conjugation step
  conjugation yield: 68%
  final HPLC purity: 86%

## NOTA-Ava-Lys(N3)-Glu-(Ava-BBN2)2
[1]; conjugation step
  conjugation yield: 83%
